Data from the supplement of paper PMC10849652.
The other results are listed elsewhere or left out.

Chains of the proteins cited; added tags and fusions are not shown. Lines headed by an entry give the natural chain unless they say otherwise; changes in a name come on top.
UniProt P78417: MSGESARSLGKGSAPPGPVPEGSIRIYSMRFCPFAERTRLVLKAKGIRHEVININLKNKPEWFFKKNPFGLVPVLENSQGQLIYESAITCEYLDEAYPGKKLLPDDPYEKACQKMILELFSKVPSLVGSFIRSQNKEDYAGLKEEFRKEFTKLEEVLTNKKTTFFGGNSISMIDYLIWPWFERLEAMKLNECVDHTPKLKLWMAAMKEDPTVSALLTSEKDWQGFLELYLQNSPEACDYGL
UniProt Q8TD30: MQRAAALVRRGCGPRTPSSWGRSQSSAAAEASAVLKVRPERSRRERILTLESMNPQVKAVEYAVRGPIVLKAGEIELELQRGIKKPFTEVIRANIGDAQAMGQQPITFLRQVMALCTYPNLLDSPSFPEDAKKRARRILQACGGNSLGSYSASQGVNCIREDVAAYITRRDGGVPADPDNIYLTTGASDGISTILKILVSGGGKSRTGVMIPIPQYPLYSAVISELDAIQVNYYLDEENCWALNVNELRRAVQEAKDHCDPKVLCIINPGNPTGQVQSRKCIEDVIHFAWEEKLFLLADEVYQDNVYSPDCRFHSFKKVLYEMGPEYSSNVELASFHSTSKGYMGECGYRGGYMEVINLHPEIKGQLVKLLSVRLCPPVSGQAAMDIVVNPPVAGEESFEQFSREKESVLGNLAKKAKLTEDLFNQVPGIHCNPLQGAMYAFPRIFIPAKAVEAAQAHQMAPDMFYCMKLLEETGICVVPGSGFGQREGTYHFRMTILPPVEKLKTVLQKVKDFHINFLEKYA
UniProt P42357: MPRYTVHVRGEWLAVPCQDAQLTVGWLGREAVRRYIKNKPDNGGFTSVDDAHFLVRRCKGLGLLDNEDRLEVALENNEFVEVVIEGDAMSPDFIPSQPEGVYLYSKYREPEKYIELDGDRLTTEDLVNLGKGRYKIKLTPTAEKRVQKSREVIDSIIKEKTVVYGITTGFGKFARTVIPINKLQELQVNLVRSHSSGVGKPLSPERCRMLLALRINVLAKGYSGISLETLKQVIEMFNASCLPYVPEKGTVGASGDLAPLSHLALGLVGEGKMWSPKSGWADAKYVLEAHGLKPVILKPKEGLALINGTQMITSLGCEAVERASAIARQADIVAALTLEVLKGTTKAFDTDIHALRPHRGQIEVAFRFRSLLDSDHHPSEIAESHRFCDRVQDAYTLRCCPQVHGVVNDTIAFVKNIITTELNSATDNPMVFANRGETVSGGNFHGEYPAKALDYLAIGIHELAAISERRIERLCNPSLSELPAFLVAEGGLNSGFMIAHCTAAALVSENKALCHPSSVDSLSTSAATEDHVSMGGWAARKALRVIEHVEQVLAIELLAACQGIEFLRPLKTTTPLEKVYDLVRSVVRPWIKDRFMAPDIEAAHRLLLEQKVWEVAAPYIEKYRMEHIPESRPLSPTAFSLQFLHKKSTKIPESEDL
UniProt P07305, whole entry, looked up: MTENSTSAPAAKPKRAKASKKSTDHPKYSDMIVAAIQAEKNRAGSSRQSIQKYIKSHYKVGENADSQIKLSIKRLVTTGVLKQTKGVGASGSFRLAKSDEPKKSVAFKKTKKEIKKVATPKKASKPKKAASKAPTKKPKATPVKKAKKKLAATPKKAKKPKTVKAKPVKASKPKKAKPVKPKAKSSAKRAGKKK
UniProt Q4ZG55: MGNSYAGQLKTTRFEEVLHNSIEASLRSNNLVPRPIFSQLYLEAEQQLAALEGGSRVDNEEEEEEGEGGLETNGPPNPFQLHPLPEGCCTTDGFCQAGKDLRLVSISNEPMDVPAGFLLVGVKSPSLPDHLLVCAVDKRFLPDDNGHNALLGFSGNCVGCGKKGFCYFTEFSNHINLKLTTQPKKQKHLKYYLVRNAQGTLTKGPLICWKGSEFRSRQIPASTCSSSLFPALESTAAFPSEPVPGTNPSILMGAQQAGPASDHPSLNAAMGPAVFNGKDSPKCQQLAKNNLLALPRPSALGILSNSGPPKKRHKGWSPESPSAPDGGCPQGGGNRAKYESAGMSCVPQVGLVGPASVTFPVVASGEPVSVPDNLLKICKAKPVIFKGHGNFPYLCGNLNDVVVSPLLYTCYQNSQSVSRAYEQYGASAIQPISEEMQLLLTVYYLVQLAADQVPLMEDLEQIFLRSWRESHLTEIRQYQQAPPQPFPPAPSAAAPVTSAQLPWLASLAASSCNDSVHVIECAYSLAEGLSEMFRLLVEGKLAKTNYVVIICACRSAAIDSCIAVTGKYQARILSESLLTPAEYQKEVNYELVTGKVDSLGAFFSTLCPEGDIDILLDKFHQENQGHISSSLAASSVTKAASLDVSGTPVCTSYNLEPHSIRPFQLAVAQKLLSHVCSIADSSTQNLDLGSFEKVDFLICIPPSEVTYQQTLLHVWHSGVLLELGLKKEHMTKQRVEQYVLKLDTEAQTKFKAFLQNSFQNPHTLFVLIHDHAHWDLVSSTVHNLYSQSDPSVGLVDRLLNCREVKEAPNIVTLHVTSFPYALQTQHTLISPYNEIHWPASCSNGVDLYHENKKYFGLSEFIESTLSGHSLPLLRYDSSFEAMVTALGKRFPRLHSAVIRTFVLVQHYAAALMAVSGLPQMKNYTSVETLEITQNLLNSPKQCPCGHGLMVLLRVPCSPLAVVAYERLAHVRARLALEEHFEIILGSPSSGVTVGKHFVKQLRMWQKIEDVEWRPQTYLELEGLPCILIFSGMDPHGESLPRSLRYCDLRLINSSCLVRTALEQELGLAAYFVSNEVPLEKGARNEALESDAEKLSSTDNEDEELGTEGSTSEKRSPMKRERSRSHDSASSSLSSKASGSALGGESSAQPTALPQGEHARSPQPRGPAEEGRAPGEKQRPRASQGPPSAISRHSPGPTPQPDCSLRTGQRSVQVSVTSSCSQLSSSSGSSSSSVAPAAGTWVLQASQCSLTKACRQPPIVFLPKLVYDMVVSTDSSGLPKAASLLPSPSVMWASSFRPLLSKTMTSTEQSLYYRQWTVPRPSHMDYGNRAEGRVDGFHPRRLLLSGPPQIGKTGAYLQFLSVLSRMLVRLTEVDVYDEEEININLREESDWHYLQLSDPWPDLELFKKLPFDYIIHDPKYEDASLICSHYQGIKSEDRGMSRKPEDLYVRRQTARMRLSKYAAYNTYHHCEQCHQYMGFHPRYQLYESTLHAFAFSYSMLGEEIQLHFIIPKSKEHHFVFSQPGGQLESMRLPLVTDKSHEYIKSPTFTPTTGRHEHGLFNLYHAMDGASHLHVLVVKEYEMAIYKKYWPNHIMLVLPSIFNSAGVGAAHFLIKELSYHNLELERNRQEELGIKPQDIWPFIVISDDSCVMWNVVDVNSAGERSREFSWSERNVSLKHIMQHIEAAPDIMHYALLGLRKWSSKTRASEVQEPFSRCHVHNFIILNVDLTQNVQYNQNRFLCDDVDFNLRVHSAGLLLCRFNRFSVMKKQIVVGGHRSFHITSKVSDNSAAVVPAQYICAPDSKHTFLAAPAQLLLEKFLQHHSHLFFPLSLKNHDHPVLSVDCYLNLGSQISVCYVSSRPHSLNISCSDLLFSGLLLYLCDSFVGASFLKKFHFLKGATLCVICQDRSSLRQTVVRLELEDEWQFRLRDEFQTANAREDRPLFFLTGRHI
UniProt P28161: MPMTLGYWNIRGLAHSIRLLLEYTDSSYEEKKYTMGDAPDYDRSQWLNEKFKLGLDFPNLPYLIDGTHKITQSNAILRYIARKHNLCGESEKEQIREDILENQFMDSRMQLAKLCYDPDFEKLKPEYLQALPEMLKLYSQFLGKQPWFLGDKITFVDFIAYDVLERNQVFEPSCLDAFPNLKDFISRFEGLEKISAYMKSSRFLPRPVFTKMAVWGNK
UniProt Q96CP6, whole entry, looked up: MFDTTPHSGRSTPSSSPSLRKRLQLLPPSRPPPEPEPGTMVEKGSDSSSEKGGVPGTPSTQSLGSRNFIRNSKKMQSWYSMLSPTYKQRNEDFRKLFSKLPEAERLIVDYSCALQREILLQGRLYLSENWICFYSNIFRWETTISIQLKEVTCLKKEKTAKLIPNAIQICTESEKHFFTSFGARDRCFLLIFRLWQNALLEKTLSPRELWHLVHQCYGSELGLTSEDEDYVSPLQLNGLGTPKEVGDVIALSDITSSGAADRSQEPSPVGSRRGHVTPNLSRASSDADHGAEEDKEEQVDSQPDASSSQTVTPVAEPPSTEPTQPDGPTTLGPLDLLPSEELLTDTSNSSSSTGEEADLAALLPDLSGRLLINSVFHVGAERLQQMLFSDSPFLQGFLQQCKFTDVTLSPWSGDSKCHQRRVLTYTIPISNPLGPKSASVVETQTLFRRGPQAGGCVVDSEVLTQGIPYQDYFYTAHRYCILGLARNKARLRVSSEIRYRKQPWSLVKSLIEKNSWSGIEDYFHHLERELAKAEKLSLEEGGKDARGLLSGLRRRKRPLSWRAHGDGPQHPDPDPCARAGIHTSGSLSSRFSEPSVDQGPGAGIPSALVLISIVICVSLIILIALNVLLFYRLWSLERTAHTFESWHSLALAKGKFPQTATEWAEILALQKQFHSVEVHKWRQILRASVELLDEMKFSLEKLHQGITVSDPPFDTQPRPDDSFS
UniProt Q9Y4H4: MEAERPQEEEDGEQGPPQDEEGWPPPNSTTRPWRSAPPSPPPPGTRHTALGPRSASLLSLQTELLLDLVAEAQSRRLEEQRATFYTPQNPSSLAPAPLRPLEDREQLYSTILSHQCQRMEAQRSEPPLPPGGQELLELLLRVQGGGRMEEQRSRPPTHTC
UniProt Q5JVS0: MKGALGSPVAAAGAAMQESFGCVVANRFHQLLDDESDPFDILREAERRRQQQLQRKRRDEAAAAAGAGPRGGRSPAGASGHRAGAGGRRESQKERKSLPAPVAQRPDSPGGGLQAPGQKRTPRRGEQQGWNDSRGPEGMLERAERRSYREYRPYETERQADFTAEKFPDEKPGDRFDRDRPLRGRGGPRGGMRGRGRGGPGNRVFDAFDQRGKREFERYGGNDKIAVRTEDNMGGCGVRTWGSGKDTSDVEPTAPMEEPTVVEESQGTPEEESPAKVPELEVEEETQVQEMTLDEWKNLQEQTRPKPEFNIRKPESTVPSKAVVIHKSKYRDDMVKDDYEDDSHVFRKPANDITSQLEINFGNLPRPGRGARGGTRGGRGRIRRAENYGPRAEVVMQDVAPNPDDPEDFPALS
UniProt Q9BX10: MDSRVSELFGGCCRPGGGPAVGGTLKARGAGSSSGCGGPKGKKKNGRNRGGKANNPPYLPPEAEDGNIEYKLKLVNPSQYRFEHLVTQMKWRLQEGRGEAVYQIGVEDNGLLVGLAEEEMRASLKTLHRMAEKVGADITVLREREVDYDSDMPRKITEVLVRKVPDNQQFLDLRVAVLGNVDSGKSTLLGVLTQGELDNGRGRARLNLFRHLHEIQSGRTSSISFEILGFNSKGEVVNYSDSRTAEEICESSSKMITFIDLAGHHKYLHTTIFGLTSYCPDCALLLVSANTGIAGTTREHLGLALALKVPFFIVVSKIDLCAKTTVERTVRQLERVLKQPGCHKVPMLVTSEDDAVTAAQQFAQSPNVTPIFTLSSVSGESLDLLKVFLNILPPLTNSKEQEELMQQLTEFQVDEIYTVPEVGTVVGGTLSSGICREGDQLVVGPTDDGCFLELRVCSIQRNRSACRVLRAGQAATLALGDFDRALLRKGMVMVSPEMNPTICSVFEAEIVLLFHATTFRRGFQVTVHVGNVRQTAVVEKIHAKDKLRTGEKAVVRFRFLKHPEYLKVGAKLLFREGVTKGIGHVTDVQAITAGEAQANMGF
UniProt Q9UBP9: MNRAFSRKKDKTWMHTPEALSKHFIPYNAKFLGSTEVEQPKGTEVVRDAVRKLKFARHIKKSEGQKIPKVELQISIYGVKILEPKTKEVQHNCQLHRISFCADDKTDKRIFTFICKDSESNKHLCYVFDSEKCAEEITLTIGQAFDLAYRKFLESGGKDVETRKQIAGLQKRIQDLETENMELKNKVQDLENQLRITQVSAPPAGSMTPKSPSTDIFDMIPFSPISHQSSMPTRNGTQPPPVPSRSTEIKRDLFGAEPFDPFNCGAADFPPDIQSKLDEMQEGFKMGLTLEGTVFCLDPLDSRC
UniProt P28799: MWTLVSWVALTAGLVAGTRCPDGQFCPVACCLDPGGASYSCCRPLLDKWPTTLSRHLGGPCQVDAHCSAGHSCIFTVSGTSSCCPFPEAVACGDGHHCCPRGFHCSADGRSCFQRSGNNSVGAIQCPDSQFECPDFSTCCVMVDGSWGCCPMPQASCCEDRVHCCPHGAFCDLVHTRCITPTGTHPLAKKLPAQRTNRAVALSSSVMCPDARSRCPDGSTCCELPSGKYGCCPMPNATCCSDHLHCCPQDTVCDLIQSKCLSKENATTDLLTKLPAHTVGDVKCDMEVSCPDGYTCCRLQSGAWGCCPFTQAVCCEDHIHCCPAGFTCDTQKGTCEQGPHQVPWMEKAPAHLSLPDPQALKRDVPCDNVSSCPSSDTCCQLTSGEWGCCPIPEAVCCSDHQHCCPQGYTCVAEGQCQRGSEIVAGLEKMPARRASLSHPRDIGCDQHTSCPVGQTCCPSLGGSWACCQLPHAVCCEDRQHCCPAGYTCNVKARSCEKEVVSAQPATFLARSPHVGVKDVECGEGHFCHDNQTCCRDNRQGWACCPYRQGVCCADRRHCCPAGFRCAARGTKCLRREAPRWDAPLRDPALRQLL

Assays:
Assay in all cases: log2 fold change, soluble protein after heating vs DMSO (PISA); higher = thermal stabilisation; K562 lysate, 10 uM; active = over 0.2 and 3.5 SD of the protein, either way, in both replicates (recomputed)
lapatinib = compound: CS(=O)(=O)CCNCc1ccc(-c2ccc3ncnc(Nc4ccc(OCc5cccc(F)c5)c(Cl)c4)c3c2)o1 [lapatinib]
Outline: (§1)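 K562 pellets were dounce-homogenised in PBS pH 7.4 containing 1 mM MgCl2, and the crude extract, at 1 mg/mL protein, was exposed to 10 μM compound for 30 min. Aliquots were heated for 3 min across 48°C-58°C, pooled, brought to 0.5% NP-40 at 4°C and spun at 21,000xg for 90 min, with the supernatant taken as soluble protein. TMTpro 16plex LC-MS/MS with equalised channel sums quantified that protein. Values are log-two fold changes in thermal stability relative to solvent controls, taken from duplicates.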

pictilisib = compound: CS(=O)(=O)N1CCN(Cc2cc3nc(-c4cccc5[nH]ncc45)nc(N4CCOCC4)c3s2)CC1 [pictilisib]
Outline: as §1

crizotinib = compound: C[C@@H](Oc1cc(-c2cnn(C3CCNCC3)c2)cnc1N)c1c(Cl)ccc(F)c1Cl [crizotinib]
Outline: as §1

[1] = compound: C[C@H](C1=CC=C(C=C1)C(=O)NC2=C3C=CNC3=NC=C2)N
Outline: as §1

duvelisib = compound: C[C@H](Nc1ncnc2nc[nH]c12)c1cc2cccc(Cl)c2c(=O)n1-c1ccccc1 [duvelisib]
Outline: as §1

gandotinib = compound: Cc1cc(Nc2cc(CN3CCOCC3)c3nc(C)c(Cc4ccc(Cl)cc4F)n3n2)n[nH]1 [gandotinib]
Outline: as §1

tozasertib = compound: Cc1cc(Nc2cc(N3CCN(C)CC3)nc(Sc3ccc(NC(=O)C4CC4)cc3)n2)n[nH]1 [tozasertib]
Outline: as §1

doramapimod = compound: Cc1ccc(-n2nc(C(C)(C)C)cc2NC(=O)Nc2ccc(OCCN3CCOCC3)c3ccccc23)cc1 [doramapimod]
Outline: as §1

bafetinib = compound: Cc1ccc(NC(=O)c2ccc(CN3CC[C@H](N(C)C)C3)c(C(F)(F)F)c2)cc1Nc1nccc(-c2cncnc2)n1 [bafetinib]
Outline: as §1

[2] = compound: Cc1cccc(CC(=O)N2CCc3c2ccc(-c2cn(C)c4ncnc(N)c24)c3F)n1
Outline: as §1

Measured: log2 fold change

GTF3C6 (UniProt Q969F1)
inactive: lapatinib 0.07 | pictilisib 0.002 | crizotinib -0.007 | [1] 0.126 | duvelisib -0.002 | gandotinib -0.035 | tozasertib -0.013 | doramapimod -0.03 | bafetinib 0.223 | [2] -0.041

GPX4 (UniProt P36969)
inactive: lapatinib -0.037 | pictilisib -0.03 | crizotinib -0.01 | [1] 0.041 | duvelisib -0.008 | gandotinib -0.065 | tozasertib 0 | doramapimod -0.001 | bafetinib -0.033 | [2] -0.051

GSTO1 (UniProt P78417)
inactive: lapatinib 0.013 | pictilisib 0.013 | crizotinib 0.094 | [1] 0.098 | duvelisib -0.006 | gandotinib -0.049 | tozasertib 0.022 | doramapimod -0.05 | bafetinib 0.062 | [2] -0.113

GTPBP1 (UniProt O00178)
inactive: lapatinib -0.003 | pictilisib -0.015 | crizotinib -0.022 | [1] -0.112 | duvelisib -0.005 | gandotinib 0.021 | tozasertib -0.002 | doramapimod -0.001 | bafetinib -0.024 | [2] 0.001

GTF2E2 (UniProt P29084)
inactive: lapatinib 0.033 | pictilisib -0.005 | crizotinib 0.006 | [1] 0.02 | duvelisib -0.008 | gandotinib 0.006 | tozasertib 0.005 | doramapimod 0.022 | bafetinib -0.085 | [2] 0.014

HDAC1 (UniProt Q13547)
inactive: lapatinib 0.004 | pictilisib 0.01 | crizotinib -0.014 | [1] -0.04 | duvelisib -0.029 | gandotinib -0.004 | tozasertib -0.015 | doramapimod 0.006 | bafetinib 0.036 | [2] 0.036

HADH isoform 2 (UniProt Q16836)
inactive: lapatinib -0.011 | pictilisib 0.04 | crizotinib 0.031 | [1] 0.057 | duvelisib -0.044 | gandotinib -0.05 | tozasertib 0.053 | doramapimod -0.055 | bafetinib 0.045 | [2] -0.055

GTF2E1 (UniProt P29083)
inactive: lapatinib -0.027 | pictilisib -0.009 | crizotinib -0.038 | [1] -0.121 | duvelisib -0.015 | gandotinib 0.06 | tozasertib 0.002 | doramapimod 0.018 | bafetinib -0.089 | [2] 0.053

HBZ, A0A494C057
inactive: lapatinib -0.137 | pictilisib -0.116 | [1] -0.024 | gandotinib -0.175 | bafetinib 0.018 | [2] 0.063

GPT2 (UniProt Q8TD30)
inactive: crizotinib 0.014 | duvelisib -0.007 | tozasertib 0.028 | doramapimod 0.099

GRIPAP1 isoform 2 (UniProt Q4V328)
inactive: crizotinib 0.152 | doramapimod -0.308

H3-3A (UniProt P84243)
inactive: lapatinib 0.028 | pictilisib -0.018 | crizotinib 0.046 | [1] 0 | gandotinib 0.016 | tozasertib -0.083 | doramapimod -0.062 | bafetinib -0.049 | [2] 0.03

GRAMD4 (UniProt Q6IC98)
inactive: lapatinib 0.098 | crizotinib -0.144 | duvelisib 0 | tozasertib -0.051 | doramapimod -0.028

GTPBP6 (UniProt O43824)
inactive: [1] 0.149 | duvelisib -0.003 | gandotinib 0.156 | tozasertib 0.023 | [2] -0.023

HBD (UniProt E9PEW8)
inactive: lapatinib -0.001 | crizotinib -0.012 | [1] -0.028 | gandotinib -0.093 | doramapimod 0.054 | [2] 0.017

GUCD1 isoform 3 (UniProt Q96NT3)
inactive: lapatinib -0.014 | crizotinib -0.13 | duvelisib 0.079 | doramapimod 0.036

GYPA, A0A2R8Y7F9
inactive: pictilisib -0.033 | [1] -0.562 | gandotinib 0.202 | bafetinib -0.029 | [2] 0.17

GSDMD (UniProt P57764)
inactive: crizotinib 0.089 | doramapimod -0.116

H3C1 (UniProt P68431)
inactive: pictilisib -0.019 | bafetinib -0.013

GYG2 (UniProt O15488)
inactive: lapatinib -0.028 | pictilisib -0.002 | duvelisib 0.026 | tozasertib 0.118 | bafetinib -0.132

HAL (UniProt P42357)
inactive: lapatinib 0.314 | crizotinib -0.017 | [1] 0.547 | duvelisib -0.357 | gandotinib -0.119 | tozasertib 0.237 | doramapimod -0.156 | [2] -0.269

HCFC1 (UniProt P51610)
inactive: lapatinib 0.04 | pictilisib -0.017 | crizotinib -0.17 | [1] 0.034 | gandotinib 0.158 | doramapimod -0.047 | bafetinib 0.108 | [2] -0.238

2 records drawn at random from the list so far:
HADH isoform 2 (UniProt Q16836)
inactive: lapatinib -0.011 | pictilisib 0.04 | crizotinib 0.031 | [1] 0.057 | duvelisib -0.044 | gandotinib -0.05 | tozasertib 0.053 | doramapimod -0.055 | bafetinib 0.045 | [2] -0.055

HBD (UniProt E9PEW8)
inactive: lapatinib -0.001 | crizotinib -0.012 | [1] -0.028 | gandotinib -0.093 | doramapimod 0.054 | [2] 0.017

More records follow.

H1-0 (UniProt P07305)
inactive: crizotinib 0.053 | duvelisib -0.215 | doramapimod -0.009

HCCS (UniProt P53701)
inactive: lapatinib 0.005 | pictilisib 0.034 | crizotinib 0.009 | [1] -0.054 | duvelisib -0.019 | gandotinib 0.021 | tozasertib -0.034 | doramapimod -0.002 | bafetinib -0.039 | [2] 0.052

HAGH isoform 2 (UniProt Q16775)
inactive: lapatinib -0.078 | crizotinib 0.004 | duvelisib 0.187 | doramapimod -0.138

GREB1 (UniProt Q4ZG55)
inactive: pictilisib 0.014 | crizotinib -0.247 | [1] -0.4 | gandotinib 0.267 | tozasertib -0.154 | doramapimod -0.029 | bafetinib -0.129 | [2] 0.334

GSTM2 (UniProt P28161)
inactive: lapatinib -0.024 | pictilisib -0.011 | [1] 0.121 | duvelisib -0.067 | gandotinib -0.042 | tozasertib 0.02 | bafetinib -0.011 | [2] -0.079

GRAMD1A (UniProt Q96CP6)
inactive: crizotinib 0.111 | doramapimod -0.286

GTF2H2C (UniProt Q6P1K8)
inactive: crizotinib -0.063 | duvelisib 0.059 | tozasertib 0.004 | doramapimod -0.056

GPSM3 (UniProt Q9Y4H4)
inactive: lapatinib 0.007 | crizotinib 0.08 | [1] -0.101 | duvelisib 0.056 | gandotinib 0.124 | doramapimod 0.052 | [2] -0.181

HABP4 (UniProt Q5JVS0)
inactive: pictilisib 0.013 | bafetinib 0.059

HEATR5A (UniProt Q86XA9)
inactive: lapatinib 0.001 | pictilisib -0.058 | crizotinib -0.023 | [1] 0.022 | duvelisib -0.008 | gandotinib -0.023 | tozasertib 0.012 | doramapimod 0 | bafetinib 0.03 | [2] -0.004

GSR isoform 5 (UniProt P00390)
inactive: lapatinib -0.094 | pictilisib -0.136 | crizotinib -0.143 | [1] -0.564 | duvelisib -0.042 | gandotinib 0.356 | doramapimod 0.017 | bafetinib 0.013 | [2] 0.304

HACD2 (UniProt Q6Y1H2)
inactive: lapatinib -0.151 | pictilisib 0.126 | bafetinib -0.249

H3-2 (UniProt Q5TEC6)
inactive: pictilisib 0.047 | crizotinib 0.028 | duvelisib -0.274 | tozasertib 0.067 | doramapimod 0.075 | bafetinib 0.147

HCFC2 (UniProt Q9Y5Z7)
inactive: pictilisib -0.015 | crizotinib 0.07 | doramapimod 0 | bafetinib -0.083

HAGHL isoform 2 (UniProt Q6PII5)
inactive: lapatinib -0.023 | pictilisib -0.038 | crizotinib 0.062 | duvelisib 0.012 | tozasertib -0.062 | doramapimod -0.011 | bafetinib 0.002

GTPBP2 (UniProt Q9BX10)
inactive: lapatinib 0.064 | pictilisib -0.056 | crizotinib -0.052 | [1] 0.021 | duvelisib 0.043 | gandotinib -0.098 | tozasertib -0.048 | doramapimod 0.027 | bafetinib -0.038 | [2] 0.009

GRM5 (UniProt P41594)
inactive: lapatinib -0.107 | pictilisib -0.396 | duvelisib 0.013 | tozasertib 0.006 | bafetinib -0.407

GULP1 (UniProt Q9UBP9)
inactive: pictilisib 0.15 | crizotinib -0.224 | [1] 0.032 | duvelisib -0.03 | gandotinib 0.046 | tozasertib 0.042 | doramapimod 0.162 | bafetinib 0.054 | [2] 0.061

GRN (UniProt P28799)
inactive: lapatinib -0.217 | crizotinib 0.03 | [1] -0.059 | duvelisib -0.053 | gandotinib 0.023 | tozasertib -0.044 | doramapimod 0.034 | [2] -0.021
